Source: patent US8445517B2, “Stat modulators” (Dana-Farber Cancer Institute, priority 2009, dated 2013)
At least one compound was matched to its structure with a doubt left. Some compounds share one wording; it may come from a single statement.

Assays:
Stat3 = Stat3 luciferase reporter cell assay (U3A cells, IL-6 stimulated); assay type: cell-based; details: compounds tested individually, dose responses analyzed; selective versus NF-κB
Source text: A cell-based assay system for each Stat1, Stat3 and Stat5 was developed to identify compounds that modulate the respective Stat activity. Although the details for each system are slightly different, as described below, the basic principle are the same. Appropriate cell lines (NIH3T3 for Stat1, U3A for Stat3, and T47D for Stat5) were transfected with a plasmid containing a luciferase reporter gene under the control of a promoter responsive to the indicated Stat, e.g., Stat1, Stat3 or Stat5, as well as a neomycin phosphotransferase cassette (BRIGHT GLO Luciferase Assay Kit available from Promega (Madison, Wis.). The reporter plasmid used in the Stat1 and Stat3 cell lines is described in Lynch et al., Cancer Research, 67:1254-61 (2007), which is herein incorporated by reference in its entirety. The nuclic acid binding sequence of Stat5 use in the reporter plasmid is denoted as region B in Walker et al., Oncogene, 26:224-233 (2007), which is herein incorporated by reference in its entirety.
Cells were selected in geneticin (G418) to isolate clones that had stably integrated the plasmid. Individual clones were isolated and luciferase expression was measured by luminometry in the presence and absence of a stimulator of the specific Stat of interest. Clones having a low basal luciferase expression, prominent induction by a specific stimulus (IFN-γ for Stat1, (IL)-6 for Stat3 and prolactin for Stat5), no induction with an irrelevant stimulus, and stable properties after prolonged cell culture or cryopreservation and thawing were selected. […] Several of these cell lines for each Stat construct were deposited with American Type Culture Collection of Manassas, Va. […]
All three cell-based screening systems were adapted for use in 384-well plates, which were then used to screen a library of 1120 compounds (the Prestwick Myeloma Collection available from Prestwick Chemical, Illkirch, France). […] After 6 hours, 40 μl of 0.5× Bright-Glo luciferase substrate (diluted in PBS) is added, and luciferase activity is quantitated on a Luminoskan luminometer (Helsinki, Finland).

U266 myeloma cells = assay: Survival of U266 myeloma cells; assay type: cell-based

| SMILES | inhibition of Stat3 activity in validation studies (Stat3) | proliferation of U266 cells (U266 myeloma cells; FIG. 6 legend) | survival of U266 cells (U266 myeloma cells; U266 cells treated with compound (FIG. 6)) |
| --- | --- | --- | --- |
| O=c1[nH]c2ccccc2n1C1CCN(CCCC(c2ccc(F)cc2)c2ccc(F)cc2)CC1 [pimozide] | significantly and specifically inhibit Stat3 activity | inhibited | dose-dependent decrease in survival |
| CCc1nc(N)nc(N)c1-c1ccc(Cl)cc1 [pyrimethamine] | significantly and specifically inhibit Stat3 activity |  |  |
| Cc1cc(/C=C/c2ccc3cc(N(C)C)ccc3[n+]2C)c(C)n1-c1ccccc1 [pyrvinium pamoate] | significantly and specifically inhibit Stat3 activity |  |  |
